Patent US10391076B2, “Anti-cancer agent comprising aminoacetonitrile compound as active ingredient” (Pitney Pharmaceuticals Pty Limited, priority 2015, dated 2019)
Some results were stated once for a whole list of compounds, not compound by compound.

Assays:
Assay type in all cases: cell-based
[1] = system: human breast cancer cell line (MCF-7); test: MCF-7 cell proliferation inhibitory activity test (sulforhodamine B); conditions: 30 μM, 72 hr culture
[2] = system: colon cancer (HT-295m21); test: Cell proliferation inhibition test, colon cancer (HT-295m21); conditions: 30 μM, similar to Example 1
[3] = system: mesothelioma (PET); test: Cell proliferation inhibition test, mesothelioma (PET); conditions: 30 μM, same manner as Example 1
[4] = system: stomach cancer (MKN45); test: Cell proliferation inhibition test, stomach cancer (MKN45); conditions: 30 M (so in the source), similar to Example 1

COc1ccc(C(=O)NC(C)(C#N)COc2ccc(SC(F)(F)F)cc2)s1 (stereo not shown) [6-99]
not less than 50%: cell proliferation inhibitory effect against MCF-7 [1] | cell proliferation inhibitory effect against HT-295m21 [2] | cell proliferation inhibitory effect against PET [3] | cell proliferation inhibitory effect against MKN45 [4]
